This assay has as its system EV-A71. Description: Cytopathic effect (CPE) inhibition assay in RD cells. Format: cell-based, Human enterovirus A71. (In general: Cytopathic effects are the visible damage that an infection or toxin causes in cultured cells.)

`CNC(=O)c1ccccc1Sc1ccc2c(/C=C/c3ccccn3)n[nH]c2c1` [Axitinib]: the “SI (selectivity index), ratio CC50/EC50” value is listed as 22.91. Also, the EC50 (Enterovirus A, EVA71, read-out: EC50, compound concentration required to achieve 50% protection from virus-induced cytopathogenicity) was 4.54 ± 1.17 µM.

These data come from publication PMC11542593, “Vascular endothelial growth factor receptor 2 as a potential host target for the inhibition of enterovirus replication” (Journal of Virology, 2024).
